Source: paper PMC9014859 (Journal of Medicinal Chemistry, 2022)

Key:
in vitro = settings: male, Sprague-Dawley, rat, hepatocytes, hepatocyte (rat) T1/2 (min), 1 μM test compound
[1] = system: Rat small mesenteric artery
[2] = system: Mouse small mesenteric artery (NPR-C KO); settings: vasorelaxation, NPR-C knockout

Compound | half-life at 1 μM (in vitro) [min] | Rat small mesenteric artery EC50+NPR-C inhibitor (M372049) ± SEM (μM) [1] | Mouse small mesenteric artery NPR-C KO EC50 ± SEM (μM) [2]
CC(=O)Nc1ccc(Nc2ncnc(N[C@@H](CC(C)C)C(=O)OC(C)(C)C)n2)cc1 [Compound 26, tert-Butyl (4-((4-Acetamidophenyl)amino)-1,3,5-triazin-2-yl)-L-leucinate] | 12 | – | –
CC(=O)Nc1ccc(Nc2ncnc(N[C@@H](Cc3ccccc3)C(=O)OC(C)(C)C)n2)cc1 [Compound 41, tert-Butyl (4-((4-Acetamidophenyl)amino)-1,3,5-triazin-2-yl)-L-phenylalaninate] | < 10 | maintained their activity | maintained their activity
